Data on one compound can be found in patent publication US20080070939A1, “LOCAL […] COMPOSITIONS CONTAINING DEXTROROTATORY MORPHINAN DERIVATIVES OR PHARMACEUTICALLY ACCEPTABLE SALTS THEREOF” (CHI MEI FOUNDATION HOSPITAL, priority 2006, published 2008).

Data set [1] can be described thus: Systemic safety indices: mortality 24 hours after intraperitoneal injection in rats. As to conditions: rat, in vivo, ip. The protocol:
Essentially, each drug was injected intraperitoneally into the rats (n=8). The number of dead rats was observed after 24 hours, and the rate of mortality (%) was calculated. Thereafter, the doses of each drug and the relative mortality were plotted to obtain dose-mortality curves of the drugs. […] The safety index (LD50/ED50) of each drug was calculated using the LD50 thus obtained and the ED50 obtained in the section “C. Potency evaluation” of this example.

A further data set relates to Male Sprague-Dawley rats. Put plainly: Infiltrative cutaneous anesthesia (inhibition of cutaneous trunci muscle reflex, CTMR) after subcutaneous injection in rats. It counts as in vivo. As to conditions: 2ED50 when administered independently, ED50 for co-administration, mean ± SEM, hydrochloride. As for the experimental part: Male Sprague-Dawley rats (weighing about 200 to 250 g); for each dose of each drug, n=8.
In brief, hairs on the dorsal surface (about 10×10 cm^2) of the thoracolumbar region of the rat were shaved, and the shaved surface was sterilized with iodine for preparation. To reduce the number of animals used, the back of the rat was further divided into left and right parts. One drug was injected first at the right part. After a washout period of one week, another drug was injected at the left part.
0.6 mL of drug was injected subcutaneously under the dorsal surface of the thoracolumbar region of the rat using a 30-gauge needle attached to a syringe (Becton Drive, Franklin Lakes, USA). The subcutaneous injection would result in a circular elevation (i.e., a wheal) of the skin, about 2 cm in diameter. The elevation was marked with ink within 1 minute after injection.
CTMR refers to the reflex movement of the skin of the back caused by twitching of the lateral thoracispinal muscle in response to local dorsal cutaneous stimulation. Essentially, a von Frey filament (No.15; Somedic Sales AB, Sweden) to which a cut end of an 18-gauge needle was affixed was used to produce a standard nociceptive stimulus (strength: 19 g). Six pinpricks (at a frequency of 0.5-1 Hz) were applied to a single marked wheal during each test. […]

The subject of another data set is sciatic nerve. Put plainly: Sciatic nerve blockade after injection at the sciatic nerve notch in rats. The format is in vivo. Details: AUC of time-% PE curve, sciatic nerve blockade of motor function / AUC of time-% PE curve, sciatic nerve blockade of proprioception / AUC of time-% PE curve, sciatic nerve blockade of nociceptive reaction: unit not given beside the values. The protocol:
Male Sprague-Dawley rats (weighing about 300 to 350 g); for each dose of each drug, n=6.
In brief, the rats were slightly anesthetized by inhalation of a low concentration of sevoflurane. Then, 200 μL of tested drugs were injected at the sciatic nerve notch at the left hind limb of the rat using a 27-gauge needle connected to a tuberculin syringe (Becton Dickinson, USA, model BND309623-BX). Thereafter, development of sciatic nerve blockade was observed from the paralysis of the left hind limb of the rat. The right hind limb served as a control during the subsequent functional assay
For proprioception, the front half of the rat body and the right hind limb were off the ground at the same time so that the rat was standing on the left hind limb during the measurement.
The differences resided in that: The sciatic nerve notch injections of ED25, ED50 and ED75 were conducted based on the method described in the preceding section “A. Drug injection” of this example. Evaluations of motor function, proprioception and nociceptive reaction were conducted based on the method described in section “B. Neurobehavioral evaluations” of this example.
The differences resided in that: Before the statistical analysis, Shapiro-Wilk test was used to evaluate whether the data were, theoretically, normally distributed.

The mark [2] stands for this setting: rats, 2ED50 when administered independently, ED50 of each drug when co-administered, mean ± SEM, hydrochloride.

Where “and” joins values, the source holds several entries; their conditions need not be identical. Equal values may be shown once. Where a name gives a salt, the structure may show the parent alone.

In the case of `CCN(CC)CC(=O)Nc1c(C)cccc1C` [Lidocaine hydrochloride, reference compound], in data set [1], the LD50 (commonly the dose expected to kill half of the subjects tested) at 24 h worked out at 196 mg/kg. In addition, the “AUC (% min.)” value in the data set on Male Sprague-Dawley rats is 2700 ± 360 % min. and 2700 ± 410 % min. Besides, in the data set on sciatic nerve (Rattus norvegicus, read-out: Mean ED50), the ED50 – broadly, the midpoint of the dose-response relation – is 2.53 mg/kg. Further, in the data set with sciatic nerve (setting [2]), the “AUC of time-% PE curve, sciatic nerve blockade of motor function” value was 2594 ± 284 and 2692 ± 248 and 2505 ± 199; the “AUC of time-% PE curve, sciatic nerve blockade of nociceptive reaction” value was 2886 ± 164 and 2957 ± 253 and 2694 ± 248; the “AUC of time-% PE curve, sciatic nerve blockade of proprioception” value was 2682 ± 204 and 2808 ± 218 and 2534 ± 196.
